The supplement of paper PMC9233669
Variants at the background level are over-represented here.

How the values were obtained:
biotinyl-Leu-oxazolone = experiment: self-aminoacylation, catalytic enhancement (BLO) (fold over background); higher = more active; k-Seq, kA / k0A0; sequences stand for … in GGGAAUGGAUCCACAUCUACGAAUUC…UUCACUGCAGACUUGACGAAGCUG
Outline: (§1)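 Mutagenized RNA pools with a 21-nt variable region (0.43 μM) reacted with each biotinyl-aminoacyl-oxazolone at 2–1250 μM. Reactions ran in 50 μL HEPES/NaCl/KCl/MgCl2/CaCl2 buffer with 5% acetonitrile, pH 6.9–7.0, for 90 minutes at room temperature. Streptavidin-captured RNA was quantified by triplicate qPCR and Illumina sequencing, and per-sequence fraction reacted was fit to a pseudo-first-order model with 1000 bootstraps. Catalytic enhancement is median kA divided by the uncatalyzed rate, the low-activity peak of a bimodal Gaussian fit.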

biotinyl-Val-oxazolone = experiment: self-aminoacylation, catalytic enhancement (BVO) (fold over background); higher = more active; k-Seq, kA / k0A0; sequences stand for … in GGGAAUGGAUCCACAUCUACGAAUUC…UUCACUGCAGACUUGACGAAGCUG
Outline: as §1

biotinyl-Ile-oxazolone = experiment: self-aminoacylation, catalytic enhancement (BIO) (fold over background); higher = more active; k-Seq, kA / k0A0; sequences stand for … in GGGAAUGGAUCCACAUCUACGAAUUC…UUCACUGCAGACUUGACGAAGCUG
Outline: as §1

biotinyl-Trp-oxazolone = experiment: self-aminoacylation, catalytic enhancement (BWO) (fold over background); higher = more active; k-Seq, kA / k0A0; sequences stand for … in GGGAAUGGAUCCACAUCUACGAAUUC…UUCACUGCAGACUUGACGAAGCUG
Outline: as §1

biotinyl-Met-oxazolone = experiment: self-aminoacylation, catalytic enhancement (BMO) (fold over background); higher = more active; k-Seq, kA / k0A0; sequences stand for … in GGGAAUGGAUCCACAUCUACGAAUUC…UUCACUGCAGACUUGACGAAGCUG
Outline: as §1

“AAGUUUCCAAAUAGUCGCAAG [Fam3.1 aminoacylation ribozyme variant]” showed a self-aminoacylation (biotinyl-Leu-oxazolone) of 1.65, a self-aminoacylation (biotinyl-Val-oxazolone) of 1.22 and a self-aminoacylation (biotinyl-Ile-oxazolone) of 1.62. For the same sequence, the self-aminoacylation (biotinyl-Trp-oxazolone) was 1.76 and the self-aminoacylation (biotinyl-Met-oxazolone) was 1.03.

“AAGUUUGCUAAAAGCCGCAAG [Fam3.1 aminoacylation ribozyme variant]” gave a self-aminoacylation (biotinyl-Leu-oxazolone) of 0.63, a self-aminoacylation (biotinyl-Val-oxazolone) of 0.689 and a self-aminoacylation (biotinyl-Ile-oxazolone) of 0.613. The self-aminoacylation (biotinyl-Trp-oxazolone) was 1.08 and the self-aminoacylation (biotinyl-Met-oxazolone) was 0.604.

In the case of “AAGUUUGCUAAUAAUCGCAAC [Fam3.1 aminoacylation ribozyme variant]”, the self-aminoacylation (biotinyl-Leu-oxazolone) is reported as 0.773, the self-aminoacylation (biotinyl-Val-oxazolone) is reported as 0.975 and the self-aminoacylation (biotinyl-Ile-oxazolone) is reported as 0.8. The self-aminoacylation (biotinyl-Trp-oxazolone) was 1.18 and the self-aminoacylation (biotinyl-Met-oxazolone) was 1.06.

For “AAGUUUGCUAAUAGUAGCAAA [Fam3.1 aminoacylation ribozyme variant]”, the self-aminoacylation (biotinyl-Leu-oxazolone) was 1.17, the self-aminoacylation (biotinyl-Val-oxazolone) was 1.56 and the self-aminoacylation (biotinyl-Ile-oxazolone) was 1.5. It also gave a self-aminoacylation (biotinyl-Trp-oxazolone) of 1.3 and a self-aminoacylation (biotinyl-Met-oxazolone) of 1.18.

In the case of “AAGUUUGCUAAUAGUGGCAAA [Fam3.1 aminoacylation ribozyme variant]”, the self-aminoacylation (biotinyl-Leu-oxazolone) is reported as 0.789, the self-aminoacylation (biotinyl-Val-oxazolone) is reported as 1.04 and the self-aminoacylation (biotinyl-Ile-oxazolone) is reported as 1.09. It also gave a self-aminoacylation (biotinyl-Trp-oxazolone) of 1.24 and a self-aminoacylation (biotinyl-Met-oxazolone) of 0.891.

“AAGUUUGCUAAUGGUCGCAAC [Fam3.1 aminoacylation ribozyme variant]” showed a self-aminoacylation (biotinyl-Leu-oxazolone) of 1.54, a self-aminoacylation (biotinyl-Val-oxazolone) of 0.997 and a self-aminoacylation (biotinyl-Ile-oxazolone) of 1.04. It also gave a self-aminoacylation (biotinyl-Trp-oxazolone) of 1.37 and a self-aminoacylation (biotinyl-Met-oxazolone) of 1.17.

For “AAGUUUGCUCAUAGUCGCAGG [Fam3.1 aminoacylation ribozyme variant]”, the self-aminoacylation (biotinyl-Leu-oxazolone) was 1.91, the self-aminoacylation (biotinyl-Val-oxazolone) was 1.32 and the self-aminoacylation (biotinyl-Ile-oxazolone) was 1.35. The self-aminoacylation (biotinyl-Trp-oxazolone) was 1.59 and the self-aminoacylation (biotinyl-Met-oxazolone) was 1.43.

“AAGUUUGCUUAUAGUCGCAGG [Fam3.1 aminoacylation ribozyme variant]” gave a self-aminoacylation (biotinyl-Leu-oxazolone) of 1.99, a self-aminoacylation (biotinyl-Val-oxazolone) of 1.43 and a self-aminoacylation (biotinyl-Ile-oxazolone) of 1.34. The self-aminoacylation (biotinyl-Trp-oxazolone) was 1.5 and the self-aminoacylation (biotinyl-Met-oxazolone) was 1.3.

“AAGUUUGUUCAUAGUCGCAAG [Fam3.1 aminoacylation ribozyme variant]” was tested, and the self-aminoacylation (biotinyl-Leu-oxazolone) was 1.32, the self-aminoacylation (biotinyl-Val-oxazolone) was 1.43 and the self-aminoacylation (biotinyl-Ile-oxazolone) was 1.42. It also gave a self-aminoacylation (biotinyl-Trp-oxazolone) of 1.5 and a self-aminoacylation (biotinyl-Met-oxazolone) of 1.13.

Sequence “AAGUUUUCUAAUAGUCUCAAG [Fam3.1 aminoacylation ribozyme variant]” has a self-aminoacylation (biotinyl-Leu-oxazolone) of 1.01, a self-aminoacylation (biotinyl-Val-oxazolone) of 1.21 and a self-aminoacylation (biotinyl-Ile-oxazolone) of 1.26. The self-aminoacylation (biotinyl-Trp-oxazolone) was 1.52 and the self-aminoacylation (biotinyl-Met-oxazolone) was 1.09.

In the case of “AAUCACCAAGGUCAUCGGGUG [Fam2.2 aminoacylation ribozyme variant]”, the self-aminoacylation (biotinyl-Leu-oxazolone) is reported as 10.7, the self-aminoacylation (biotinyl-Val-oxazolone) is reported as 5.67 and the self-aminoacylation (biotinyl-Ile-oxazolone) is reported as 4.92. It also gave a self-aminoacylation (biotinyl-Trp-oxazolone) of 8.66 and a self-aminoacylation (biotinyl-Met-oxazolone) of 6.79.

“AAUUUUGCUAAUAAUCGCAAG [Fam3.1 aminoacylation ribozyme variant]” showed a self-aminoacylation (biotinyl-Leu-oxazolone) of 1.08, a self-aminoacylation (biotinyl-Val-oxazolone) of 1.33 and a self-aminoacylation (biotinyl-Ile-oxazolone) of 1.85. It also gave a self-aminoacylation (biotinyl-Trp-oxazolone) of 1.54 and a self-aminoacylation (biotinyl-Met-oxazolone) of 1.51.

With “ACACACUUCAAGCAAUCGAUC [Fam1B.1 aminoacylation ribozyme variant]” the self-aminoacylation (biotinyl-Leu-oxazolone) was 0.665, the self-aminoacylation (biotinyl-Val-oxazolone) was 0.971 and the self-aminoacylation (biotinyl-Ile-oxazolone) was 0.815. The self-aminoacylation (biotinyl-Trp-oxazolone) was 0.844 and the self-aminoacylation (biotinyl-Met-oxazolone) was 0.492.

Sequence “ACGUUUGCUAAUGGUCGCAAG [Fam3.1 aminoacylation ribozyme variant]” has a self-aminoacylation (biotinyl-Leu-oxazolone) of 1.25, a self-aminoacylation (biotinyl-Val-oxazolone) of 1.22 and a self-aminoacylation (biotinyl-Ile-oxazolone) of 1.22. For the same sequence, the self-aminoacylation (biotinyl-Trp-oxazolone) was 1.47 and the self-aminoacylation (biotinyl-Met-oxazolone) was 1.72.

“AUUACCCUCGUCAUCGAGUGA [Fam2.1 aminoacylation ribozyme variant]” gave a self-aminoacylation (biotinyl-Leu-oxazolone) of 3.09, a self-aminoacylation (biotinyl-Val-oxazolone) of 2.07 and a self-aminoacylation (biotinyl-Ile-oxazolone) of 2.08. It also gave a self-aminoacylation (biotinyl-Trp-oxazolone) of 3.22 and a self-aminoacylation (biotinyl-Met-oxazolone) of 2.98.

With “AUUACCCUGGCCAUCGACUGA [Fam2.1 aminoacylation ribozyme variant]” the self-aminoacylation (biotinyl-Leu-oxazolone) was 1.05, the self-aminoacylation (biotinyl-Val-oxazolone) was 0.861 and the self-aminoacylation (biotinyl-Ile-oxazolone) was 0.711. For the same sequence, the self-aminoacylation (biotinyl-Trp-oxazolone) was 0.215 and the self-aminoacylation (biotinyl-Met-oxazolone) was 0.936.

“AUUACCCUGGUCAUGGAGGGA [Fam2.1 aminoacylation ribozyme variant]” showed a self-aminoacylation (biotinyl-Leu-oxazolone) of 1.86, a self-aminoacylation (biotinyl-Val-oxazolone) of 1.76 and a self-aminoacylation (biotinyl-Ile-oxazolone) of 1.82. The self-aminoacylation (biotinyl-Trp-oxazolone) was 2.23 and the self-aminoacylation (biotinyl-Met-oxazolone) was 1.83.

Sequence “AUUACCCUGGUGAUCGACUGA [Fam2.1 aminoacylation ribozyme variant]” has a self-aminoacylation (biotinyl-Leu-oxazolone) of 1.12, a self-aminoacylation (biotinyl-Val-oxazolone) of 1.02 and a self-aminoacylation (biotinyl-Ile-oxazolone) of 1.05. For the same sequence, the self-aminoacylation (biotinyl-Trp-oxazolone) was 0.743 and the self-aminoacylation (biotinyl-Met-oxazolone) was 0.951.

“AUUACCCUGUUCAUGGAGUGA [Fam2.1 aminoacylation ribozyme variant]” was tested, and the self-aminoacylation (biotinyl-Leu-oxazolone) was 11.4, the self-aminoacylation (biotinyl-Val-oxazolone) was 5.28 and the self-aminoacylation (biotinyl-Ile-oxazolone) was 5.12. For the same sequence, the self-aminoacylation (biotinyl-Trp-oxazolone) was 11.8 and the self-aminoacylation (biotinyl-Met-oxazolone) was 11.1.

For “AUUACCGUGGUCAUCGGGUGA [Fam2.1 aminoacylation ribozyme variant]”, the self-aminoacylation (biotinyl-Leu-oxazolone) was 11.9, the self-aminoacylation (biotinyl-Val-oxazolone) was 8.1 and the self-aminoacylation (biotinyl-Ile-oxazolone) was 7.08. It also gave a self-aminoacylation (biotinyl-Trp-oxazolone) of 17.3 and a self-aminoacylation (biotinyl-Met-oxazolone) of 11.7.

In the case of “AUUACCUUGGUCAUCGCGUGA [Fam2.1 aminoacylation ribozyme variant]”, the self-aminoacylation (biotinyl-Leu-oxazolone) is reported as 19.2, the self-aminoacylation (biotinyl-Val-oxazolone) is reported as 9.23 and the self-aminoacylation (biotinyl-Ile-oxazolone) is reported as 7.37. It also gave a self-aminoacylation (biotinyl-Trp-oxazolone) of 19.5 and a self-aminoacylation (biotinyl-Met-oxazolone) of 17.3.

“AUUAGCCUGAUCAUCGAGUGA [Fam2.1 aminoacylation ribozyme variant]” showed a self-aminoacylation (biotinyl-Leu-oxazolone) of 10.6, a self-aminoacylation (biotinyl-Val-oxazolone) of 4.4 and a self-aminoacylation (biotinyl-Ile-oxazolone) of 4.82. For the same sequence, the self-aminoacylation (biotinyl-Trp-oxazolone) was 11 and the self-aminoacylation (biotinyl-Met-oxazolone) was 10.4.

“AUUCACCAAGGGCAUCGGGUG [Fam2.2 aminoacylation ribozyme variant]” was tested, and the self-aminoacylation (biotinyl-Leu-oxazolone) was 6.01, the self-aminoacylation (biotinyl-Val-oxazolone) was 5.01 and the self-aminoacylation (biotinyl-Ile-oxazolone) was 4.37. It also gave a self-aminoacylation (biotinyl-Trp-oxazolone) of 4.74 and a self-aminoacylation (biotinyl-Met-oxazolone) of 5.2.

Sequence “AUUCACCGAGGUCAUCGUGUG [Fam2.2 aminoacylation ribozyme variant]” has a self-aminoacylation (biotinyl-Leu-oxazolone) of 1.15, a self-aminoacylation (biotinyl-Val-oxazolone) of 0.939 and a self-aminoacylation (biotinyl-Ile-oxazolone) of 0.992. It also gave a self-aminoacylation (biotinyl-Trp-oxazolone) of 1.04 and a self-aminoacylation (biotinyl-Met-oxazolone) of 1.21.

Sequence “AUUCACCUACUUCAUCGGGUG [Fam2.2 aminoacylation ribozyme variant]” has a self-aminoacylation (biotinyl-Leu-oxazolone) of 0.992, a self-aminoacylation (biotinyl-Val-oxazolone) of 1.06 and a self-aminoacylation (biotinyl-Ile-oxazolone) of 0.925. For the same sequence, the self-aminoacylation (biotinyl-Trp-oxazolone) was 0.81 and the self-aminoacylation (biotinyl-Met-oxazolone) was 1.06.

For “AUUCACCUAGGUCAGCGGGUG [Fam2.2 aminoacylation ribozyme variant]”, the self-aminoacylation (biotinyl-Leu-oxazolone) was 5.95, the self-aminoacylation (biotinyl-Val-oxazolone) was 3.2 and the self-aminoacylation (biotinyl-Ile-oxazolone) was 3.3. For the same sequence, the self-aminoacylation (biotinyl-Trp-oxazolone) was 4.21 and the self-aminoacylation (biotinyl-Met-oxazolone) was 4.39.

For “AUUCACCUAGGUCAUAAGGUG [Fam2.2 aminoacylation ribozyme variant]”, the self-aminoacylation (biotinyl-Leu-oxazolone) was 3.48, the self-aminoacylation (biotinyl-Val-oxazolone) was 1.69 and the self-aminoacylation (biotinyl-Ile-oxazolone) was 1.98. It also gave a self-aminoacylation (biotinyl-Trp-oxazolone) of 2.59 and a self-aminoacylation (biotinyl-Met-oxazolone) of 3.33.

Sequence “AUUCACCUAGGUGAUCGGGUC [Fam2.2 aminoacylation ribozyme variant]” has a self-aminoacylation (biotinyl-Leu-oxazolone) of 0.971, a self-aminoacylation (biotinyl-Val-oxazolone) of 1.46 and a self-aminoacylation (biotinyl-Ile-oxazolone) of 1.29. It also gave a self-aminoacylation (biotinyl-Trp-oxazolone) of 0.807 and a self-aminoacylation (biotinyl-Met-oxazolone) of 1.14.
